{"source": "the supplement of paper PMC6143611", "key": {"[1]": {"system": "Danio rerio larva rod photoreceptor outer segment", "test": "rod outer segment growth distance Dg, difference from same-week DMSO control mean; higher = more outer segment growth", "settings": "20 µM; treatment time: 4 days (6-10 dpf)"}, "[2]": {"system": "Danio rerio larva rod photoreceptor outer segment", "test": "rod outer segment shedding distance Ds, difference from same-week DMSO control mean; higher = less outer segment shedding", "settings": "20 µM; treatment time: 4 days (6-10 dpf)"}}, "note": "Counter-ions that a name gives are not always drawn. ± gives the uncertainty stated by the source. Some of the results follow. Baselines shift from plate to plate; read single values as rough.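 At 6 dpf, larvae had a heat-shock-induced fluorescent stripe placed in rod outer segments; shedding distance, from stripe to outer segment tip, was measured in confocal stacks, roughly three fish per compound. Controls received 0.2% DMSO vehicle; compounds were flagged for ≥20% change versus same-week control and p < 0.001 (Dunnett test, mixed-effects models).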"}
{"smiles": "Cc1cc(NS(=O)(=O)c2ccc(N)cc2)no1", "note": "[Sulfamethoxazole]", "values": [{"measurement": "rod outer segment growth distance Dg", "setting": "[1]", "result": "0.84 ± 0.24", "unit": "um"}, {"measurement": "rod outer segment shedding distance Ds", "setting": "[2]", "result": "-0.95 ± 0.27", "unit": "um"}]}
{"smiles": "CCCc1cc(=O)[nH]c(=S)[nH]1", "note": "[Propylthiouracil]", "values": [{"measurement": "rod outer segment growth distance Dg", "setting": "[1]", "result": "-0.05 ± 0.26", "unit": "um"}, {"measurement": "rod outer segment shedding distance Ds", "setting": "[2]", "result": "-0.65 ± 0.29", "unit": "um"}]}
{"smiles": "CN1CCN(c2cccc(Nc3nc4c(-c5ccc(S(C)(=O)=O)cc5)cccn4n3)c2)CC1", "values": [{"measurement": "rod outer segment growth distance Dg", "setting": "[1]", "result": "-1.07 ± 0.24", "unit": "um"}, {"measurement": "rod outer segment shedding distance Ds", "setting": "[2]", "result": "0.18 ± 0.15", "unit": "um"}]}
{"smiles": "C[C@H](CS)C(=O)N1CCC[C@H]1C(=O)O", "note": "[Captopril]", "values": [{"measurement": "rod outer segment growth distance Dg", "setting": "[1]", "result": "-0.21 ± 0.27", "unit": "um"}, {"measurement": "rod outer segment shedding distance Ds", "setting": "[2]", "result": "-0.52 ± 0.27", "unit": "um"}]}
{"smiles": "CC(=O)[C@H]1CC[C@H]2[C@@H]3CC=C4C[C@@H](O)CC[C@]4(C)[C@H]3CC[C@]12C", "note": "[Pregnenolone]", "values": [{"measurement": "rod outer segment growth distance Dg", "setting": "[1]", "result": "-1.1 ± 0.24", "unit": "um"}, {"measurement": "rod outer segment shedding distance Ds", "setting": "[2]", "result": "0.03 ± 0.28", "unit": "um"}]}
{"smiles": "NC(=O)NO", "note": "[Hydroxyurea]", "values": [{"measurement": "rod outer segment growth distance Dg", "setting": "[1]", "result": "1.26 ± 0.23", "unit": "um"}, {"measurement": "rod outer segment shedding distance Ds", "setting": "[2]", "result": "1.9 ± 0.3", "unit": "um"}]}
{"smiles": "CC(C)[C@H](N)C(=O)OCCOCn1cnc2c(=O)nc(N)[nH]c21", "note": "[Valaciclovir HCl]", "values": [{"measurement": "rod outer segment growth distance Dg", "setting": "[1]", "result": "0.98 ± 0.18", "unit": "um"}, {"measurement": "rod outer segment shedding distance Ds", "setting": "[2]", "result": "0.32 ± 0.27", "unit": "um"}]}
{"smiles": "COC(=O)N[C@H](C(=O)N[C@@H](Cc1ccccc1)[C@@H](O)CN(Cc1ccc(-c2ccccn2)cc1)NC(=O)[C@@H](NC(=O)OC)C(C)(C)C)C(C)(C)C", "note": "[Atazanavir Sulfate]", "values": [{"measurement": "rod outer segment growth distance Dg", "setting": "[1]", "result": "0.08 ± 0.18", "unit": "um"}, {"measurement": "rod outer segment shedding distance Ds", "setting": "[2]", "result": "-0.53 ± 0.18", "unit": "um"}]}
{"smiles": "COc1cc2nc(N3CCN(C(=O)C4COc5ccccc5O4)CC3)nc(N)c2cc1OC", "note": "(configuration not stated) [Doxazosin Mesylate]", "values": [{"measurement": "rod outer segment growth distance Dg", "setting": "[1]", "result": "-0.21 ± 0.27", "unit": "um"}, {"measurement": "rod outer segment shedding distance Ds", "setting": "[2]", "result": "-0.03 ± 0.27", "unit": "um"}]}
{"smiles": "COc1ccc2c(c1)c(CC(=O)O)c(C)n2C(=O)c1ccc(Cl)cc1", "note": "[Indomethacin]", "values": [{"measurement": "rod outer segment growth distance Dg", "setting": "[1]", "result": "-0.11 ± 0.26", "unit": "um"}, {"measurement": "rod outer segment shedding distance Ds", "setting": "[2]", "result": "0.17 ± 0.13", "unit": "um"}]}
{"smiles": "CNC(=O)CN(CCN(CCN(CC(=O)[O-])CC(=O)NC)CC(=O)[O-])CC(=O)[O-].[Gd+3]", "note": "[Gadodiamide]", "values": [{"measurement": "rod outer segment growth distance Dg", "setting": "[1]", "result": "-0.94 ± 0.24", "unit": "um"}, {"measurement": "rod outer segment shedding distance Ds", "setting": "[2]", "result": "-0.22 ± 0.21", "unit": "um"}]}
{"smiles": "Nc1ccc(S(N)(=O)=O)cc1", "note": "[Sulfanilamide]", "values": [{"measurement": "rod outer segment growth distance Dg", "setting": "[1]", "result": "-1.1 ± 0.18", "unit": "um"}, {"measurement": "rod outer segment shedding distance Ds", "setting": "[2]", "result": "0.11 ± 0.17", "unit": "um"}]}
{"smiles": "CCN(c1cc(-c2ccc(CN3CCOCC3)cc2)cc(C(=O)NCc2c(C)cc(C)[nH]c2=O)c1C)C1CCOCC1", "values": [{"measurement": "rod outer segment growth distance Dg", "setting": "[1]", "result": "-0.34 ± 0.21", "unit": "um"}, {"measurement": "rod outer segment shedding distance Ds", "setting": "[2]", "result": "0.41 ± 0.29", "unit": "um"}]}
{"smiles": "O=C(O)CCCc1c[nH]c2ccccc12", "note": "[3-Indolebutyric acid (IBA)]", "values": [{"measurement": "rod outer segment growth distance Dg", "setting": "[1]", "result": "0.91 ± 0.22", "unit": "um"}, {"measurement": "rod outer segment shedding distance Ds", "setting": "[2]", "result": "-0.28 ± 0.33", "unit": "um"}]}
{"smiles": "CNCc1ccc(-c2[nH]c3cc(F)cc4c3c2CCNC4=O)cc1", "values": [{"measurement": "rod outer segment growth distance Dg", "setting": "[1]", "result": "-1.62 ± 0.22", "unit": "um"}, {"measurement": "rod outer segment shedding distance Ds", "setting": "[2]", "result": "-0.29 ± 0.24", "unit": "um"}]}
{"smiles": "O=C(c1ccccc1)c1ccc2n1CCC2C(=O)O", "note": "(configuration not stated) [Ketorolac]", "values": [{"measurement": "rod outer segment growth distance Dg", "setting": "[1]", "result": "-0.5 ± 0.25", "unit": "um"}, {"measurement": "rod outer segment shedding distance Ds", "setting": "[2]", "result": "-0.19 ± 0.18", "unit": "um"}]}
{"smiles": "CCc1c2c(nc3ccc(OC(=O)N4CCC(N5CCCCC5)CC4)cc13)-c1cc3c(c(=O)n1C2)COC(=O)[C@]3(O)CC", "note": "[Irinotecan HCl Trihydrate]", "values": [{"measurement": "rod outer segment growth distance Dg", "setting": "[1]", "result": "-0.09 ± 0.24", "unit": "um"}, {"measurement": "rod outer segment shedding distance Ds", "setting": "[2]", "result": "-0.2 ± 0.3", "unit": "um"}]}
{"smiles": "Cc1ccc(C)c(OCCCC(C)(C)C(=O)O)c1", "note": "[Gemfibrozil]", "values": [{"measurement": "rod outer segment growth distance Dg", "setting": "[1]", "result": "0.75 ± 0.28", "unit": "um"}, {"measurement": "rod outer segment shedding distance Ds", "setting": "[2]", "result": "-0.58 ± 0.16", "unit": "um"}]}
{"smiles": "O=C(NC(NC(=S)Nc1ccc(F)c([N+](=O)[O-])c1)C(Cl)(Cl)Cl)C(c1ccccc1)c1ccccc1", "note": "(configuration not stated)", "values": [{"measurement": "rod outer segment growth distance Dg", "setting": "[1]", "result": "-1.28 ± 0.19", "unit": "um"}, {"measurement": "rod outer segment shedding distance Ds", "setting": "[2]", "result": "-1.47 ± 0.26", "unit": "um"}]}
{"smiles": "CCCc1cc(C(N)=S)ccn1", "note": "[Protionamide]", "values": [{"measurement": "rod outer segment growth distance Dg", "setting": "[1]", "result": "1.7 ± 0.41", "unit": "um"}, {"measurement": "rod outer segment shedding distance Ds", "setting": "[2]", "result": "-1.68 ± 0.58", "unit": "um"}]}
{"smiles": "O=C(Nc1cccc(Cl)c1)c1ccccn1", "values": [{"measurement": "rod outer segment growth distance Dg", "setting": "[1]", "result": "-0.95 ± 0.18", "unit": "um"}, {"measurement": "rod outer segment shedding distance Ds", "setting": "[2]", "result": "-0.49 ± 0.11", "unit": "um"}]}
{"smiles": "CC1(C)O[C@@H]2C[C@H]3[C@@H]4CCC5=CC(=O)C=C[C@]5(C)[C@H]4[C@@H](O)C[C@]3(C)[C@]2(C(=O)CO)O1", "note": "[Desonide]", "values": [{"measurement": "rod outer segment growth distance Dg", "setting": "[1]", "result": "0.05 ± 0.29", "unit": "um"}, {"measurement": "rod outer segment shedding distance Ds", "setting": "[2]", "result": "-0.15 ± 0.14", "unit": "um"}]}
{"smiles": "N#C[C@@H]1CCCN1C(=O)CNC12CC3CC(CC(O)(C3)C1)C2", "note": "[Vildagliptin (LAF-237)]", "values": [{"measurement": "rod outer segment growth distance Dg", "setting": "[1]", "result": "-0.23 ± 0.17", "unit": "um"}, {"measurement": "rod outer segment shedding distance Ds", "setting": "[2]", "result": "0.06 ± 0.17", "unit": "um"}]}
{"smiles": "CC[C@@]1(O)C(=O)OCc2c1cc1n(c2=O)Cc2cc3c(CN(C)C)c(O)ccc3nc2-1", "note": "[Topotecan HCl]", "values": [{"measurement": "rod outer segment growth distance Dg", "setting": "[1]", "result": "-0.1 ± 0.22", "unit": "um"}, {"measurement": "rod outer segment shedding distance Ds", "setting": "[2]", "result": "0.39 ± 0.26", "unit": "um"}]}
{"smiles": "Cn1cc(-c2ccc3nnc(Sc4ccc5ncccc5c4)n3n2)cn1", "values": [{"measurement": "rod outer segment growth distance Dg", "setting": "[1]", "result": "-0.57 ± 0.22", "unit": "um"}, {"measurement": "rod outer segment shedding distance Ds", "setting": "[2]", "result": "-0.29 ± 0.25", "unit": "um"}]}
{"smiles": "Nc1cccc2c1CN(C1CCC(=O)NC1=O)C2=O", "note": "(configuration not stated) [Lenalidomide (CC-5013)]", "values": [{"measurement": "rod outer segment growth distance Dg", "setting": "[1]", "result": "0.25 ± 0.19", "unit": "um"}, {"measurement": "rod outer segment shedding distance Ds", "setting": "[2]", "result": "-1.68 ± 0.28", "unit": "um"}]}
{"smiles": "O=C(O)C1(C(=O)O)CCC1.[NH2-].[NH2-].[Pt+2]", "note": "[Carboplatin]", "values": [{"measurement": "rod outer segment growth distance Dg", "setting": "[1]", "result": "1.12 ± 0.21", "unit": "um"}, {"measurement": "rod outer segment shedding distance Ds", "setting": "[2]", "result": "0.05 ± 0.27", "unit": "um"}]}
{"smiles": "COc1c(C)c2c(c(O)c1C/C=C(\\C)CCC(=O)O)C(=O)OC2", "note": "[Mycophenolic acid]", "values": [{"measurement": "rod outer segment growth distance Dg", "setting": "[1]", "result": "0.88 ± 0.23", "unit": "um"}, {"measurement": "rod outer segment shedding distance Ds", "setting": "[2]", "result": "-0.03 ± 0.26", "unit": "um"}]}
{"smiles": "CC[C@H]1OC(=O)[C@H](C)[C@@H](O[C@H]2C[C@@](C)(OC)[C@@H](O)[C@H](C)O2)[C@H](C)[C@@H](O[C@@H]2O[C@H](C)C[C@H](N(C)C)[C@H]2O)[C@](C)(O)C[C@@H](C)CN(C)[C@H](C)[C@@H](O)[C@]1(C)O", "note": "[Azithromycin]", "values": [{"measurement": "rod outer segment growth distance Dg", "setting": "[1]", "result": "-1.02 ± 0.19", "unit": "um"}, {"measurement": "rod outer segment shedding distance Ds", "setting": "[2]", "result": "-0.77 ± 0.3", "unit": "um"}]}
{"smiles": "NS(=O)(=O)c1cc2c(cc1Cl)NC(C(Cl)Cl)NS2(=O)=O", "note": "(configuration not stated) [Trichlormethiazide]", "values": [{"measurement": "rod outer segment growth distance Dg", "setting": "[1]", "result": "0.77 ± 0.2", "unit": "um"}, {"measurement": "rod outer segment shedding distance Ds", "setting": "[2]", "result": "-0.11 ± 0.21", "unit": "um"}]}
{"smiles": "COc1cc([C@@H]2c3cc4c(cc3[C@@H](O[C@@H]3O[C@@H]5CO[C@@H](C)O[C@H]5[C@H](O)[C@H]3O)[C@H]3COC(=O)[C@H]23)OCO4)cc(OC)c1O", "note": "[Etoposide]", "values": [{"measurement": "rod outer segment growth distance Dg", "setting": "[1]", "result": "-0.13 ± 0.19", "unit": "um"}, {"measurement": "rod outer segment shedding distance Ds", "setting": "[2]", "result": "-0.74 ± 0.21", "unit": "um"}]}
